Some of the results follow.
How the values were obtained:
Experiment in all cases: glycan array binding signal (z-score within array); higher = stronger binding
Settings in all cases: glycan notation: IUPAC condensed, linker removed
[1] = molecular target: Neu5Ac(a2-3)Gal(b1-4)GlcNAc(b1-6)GalNAc
Summary of the method: (§1)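 The Consortium for Functional Glycomics database supplied 3228 glycan arrays, of which those lacking an available protein sequence were dropped. The binding signal, a within-array Z-score, was averaged across arrays of the same protein sequence and across linkers. Negative scores can be read as non-binding.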

[2] = molecular target: Neu5Ac(a2-3)Gal(b1-4)GlcNAc(b1-6)[Gal(b1-3)]GalNAc
Summary of the method: as §1

[3] = molecular target: Neu5Ac(a2-3)Gal(b1-4)GlcNAc(b1-6)[Neu5Ac(a2-3)Gal(b1-3)]GalNAc
Summary of the method: as §1

[4] = molecular target: Neu5Ac(a2-3)Gal(b1-4)GlcNAc6S
Summary of the method: as §1

[5] = molecular target: Neu5Ac(a2-3)Gal(b1-4)[Fuc(a1-3)]GlcNAc
Summary of the method: as §1

[6] = molecular target: Neu5Ac(a2-3)Gal(b1-4)[Fuc(a1-3)]GlcNAc(b1-2)Man
Summary of the method: as §1

[7] = molecular target: Neu5Ac(a2-3)Gal(b1-4)[Fuc(a1-3)]GlcNAc(b1-3)Gal
Summary of the method: as §1

[8] = molecular target: Neu5Ac(a2-3)Gal(b1-4)[Fuc(a1-3)]GlcNAc(b1-3)Gal(b1-4)GlcNAc
Summary of the method: as §1

[9] = molecular target: Neu5Ac(a2-3)Gal(b1-4)[Fuc(a1-3)]GlcNAc(b1-3)Gal(b1-4)[Fuc(a1-3)]GlcNAc(b1-3)Gal(b1-4)[Fuc(a1-3)]GlcNAc
Summary of the method: as §1

[10] = molecular target: Neu5Ac(a2-3)Gal(b1-4)[Fuc(a1-3)]GlcNAc(b1-3)GalNAc
Summary of the method: as §1

[11] = molecular target: Neu5Ac(a2-3)Gal(b1-4)[Fuc(a1-3)]GlcNAc(b1-6)[Gal(b1-3)]GalNAc
Summary of the method: as §1

[12] = molecular target: Neu5Ac(a2-3)Gal(b1-4)[Fuc(a1-3)]GlcNAc(b1-6)[Neu5Ac(a2-3)Gal(b1-3)]GalNAc
Summary of the method: as §1

[13] = molecular target: Neu5Ac(a2-3)Gal(b1-4)[Fuc(a1-3)]GlcNAc6S
Summary of the method: as §1

[14] = molecular target: Neu5Ac(a2-3)Gal6S(b1-4)GlcNAc
Summary of the method: as §1

[15] = molecular target: Neu5Ac(a2-3)Gal6S(b1-4)[Fuc(a1-3)]GlcNAc
Summary of the method: as §1

Neu5Ac(a2-3)GalNAc = molecular target: Neu5Ac(a2-3)GalNAc
Summary of the method: as §1

[16] = molecular target: Neu5Ac(a2-3)GalNAc(b1-4)GlcNAc
Summary of the method: as §1

[17] = molecular target: Neu5Ac(a2-3)[GalNAc(b1-4)]Gal(b1-4)Glc
Summary of the method: as §1

[18] = molecular target: Neu5Ac(a2-3)[GalNAc(b1-4)]Gal(b1-4)GlcNAc
Summary of the method: as §1

[19] = molecular target: Neu5Ac(a2-3)[GalNAc(b1-4)]Gal(b1-4)GlcNAc(b1-3)GalNAc
Summary of the method: as §1

[20] = molecular target: Neu5Ac(a2-3)[Neu5Ac(a2-6)]GalNAc
Summary of the method: as §1

Neu5Ac(a2-6)Gal = molecular target: Neu5Ac(a2-6)Gal
Summary of the method: as §1

[21] = molecular target: Neu5Ac(a2-6)Gal(b1-3)GlcNAc(b1-3)[Gal(b1-4)GlcNAc(b1-6)]Gal(b1-4)Glc
Summary of the method: as §1

Neu5Ac(a2-6)Gal(b1-4)Glc = molecular target: Neu5Ac(a2-6)Gal(b1-4)Glc
Summary of the method: as §1

[22] = molecular target: Neu5Ac(a2-6)Gal(b1-4)GlcNAc
Summary of the method: as §1

[23] = molecular target: Neu5Ac(a2-6)Gal(b1-4)GlcNAc(b1-2)Man
Summary of the method: as §1

[24] = molecular target: Neu5Ac(a2-6)Gal(b1-4)GlcNAc(b1-2)Man(a1-3)Man(b1-4)GlcNAc(b1-4)GlcNAc
Summary of the method: as §1

[25] = molecular target: Neu5Ac(a2-6)Gal(b1-4)GlcNAc(b1-2)Man(a1-3)[Gal(b1-4)GlcNAc(b1-2)Man(a1-6)]Man(b1-4)GlcNAc(b1-4)GlcNAc
Summary of the method: as §1

[26] = molecular target: Neu5Ac(a2-6)Gal(b1-4)GlcNAc(b1-2)Man(a1-3)[GlcNAc(b1-2)Man(a1-6)]Man(b1-4)GlcNAc(b1-4)GlcNAc
Summary of the method: as §1

[27] = molecular target: Neu5Ac(a2-6)Gal(b1-4)GlcNAc(b1-2)Man(a1-3)[GlcNAc(b1-4)][Neu5Ac(a2-6)Gal(b1-4)GlcNAc(b1-2)Man(a1-6)]Man(b1-4)GlcNAc(b1-4)GlcNAc
Summary of the method: as §1

[28] = molecular target: Neu5Ac(a2-6)Gal(b1-4)GlcNAc(b1-2)Man(a1-3)[Man(a1-6)]Man(b1-4)GlcNAc(b1-4)GlcNAc
Summary of the method: as §1

[29] = molecular target: Neu5Ac(a2-6)Gal(b1-4)GlcNAc(b1-2)Man(a1-3)[Neu5Ac(a2-3)Gal(b1-4)GlcNAc(b1-2)Man(a1-6)]Man(b1-4)GlcNAc(b1-4)GlcNAc
Summary of the method: as §1

[30] = molecular target: Neu5Ac(a2-6)Gal(b1-4)GlcNAc(b1-2)Man(a1-3)[Neu5Ac(a2-6)Gal(b1-4)GlcNAc(b1-2)Man(a1-6)]Man(b1-4)GlcNAc(b1-4)GlcNAc
Summary of the method: as §1

[31] = molecular target: Neu5Ac(a2-6)Gal(b1-4)GlcNAc(b1-2)Man(a1-3)[Neu5Ac(a2-6)Gal(b1-4)GlcNAc(b1-2)Man(a1-6)]Man(b1-4)GlcNAc(b1-4)[Fuc(a1-6)]GlcNAc
Summary of the method: as §1

[32] = molecular target: Neu5Ac(a2-6)Gal(b1-4)GlcNAc(b1-2)Man(a1-6)Man(b1-4)GlcNAc(b1-4)GlcNAc
Summary of the method: as §1

[33] = molecular target: Neu5Ac(a2-6)Gal(b1-4)GlcNAc(b1-2)Man(a1-6)[Gal(b1-4)GlcNAc(b1-2)Man(a1-3)]Man(b1-4)GlcNAc(b1-4)GlcNAc
Summary of the method: as §1

[34] = molecular target: Neu5Ac(a2-6)Gal(b1-4)GlcNAc(b1-2)Man(a1-6)[GlcNAc(b1-2)Man(a1-3)]Man(b1-4)GlcNAc(b1-4)GlcNAc
Summary of the method: as §1

[35] = molecular target: Neu5Ac(a2-6)Gal(b1-4)GlcNAc(b1-2)Man(a1-6)[Man(a1-3)]Man(b1-4)GlcNAc(b1-4)GlcNAc
Summary of the method: as §1

[36] = molecular target: Neu5Ac(a2-6)Gal(b1-4)GlcNAc(b1-2)[Neu5Ac(a2-6)Gal(b1-4)GlcNAc(b1-4)]Man(a1-3)[GlcNAc(b1-4)][Neu5Ac(a2-6)Gal(b1-4)GlcNAc(b1-2)[Neu5Ac(a2-6)Gal(b1-4)GlcNAc(b1-6)]Man(a1-6)]Man(b1-4)GlcNAc(b1-4)GlcNAc
Summary of the method: as §1

[37] = molecular target: Neu5Ac(a2-6)Gal(b1-4)GlcNAc(b1-2)[Neu5Ac(a2-6)Gal(b1-4)GlcNAc(b1-4)]Man(a1-3)[GlcNAc(b1-4)][Neu5Ac(a2-6)Gal(b1-4)GlcNAc(b1-4)Man(a1-6)]Man(b1-4)GlcNAc(b1-4)GlcNAc
Summary of the method: as §1

[38] = molecular target: Neu5Ac(a2-6)Gal(b1-4)GlcNAc(b1-2)[Neu5Ac(a2-6)Gal(b1-4)GlcNAc(b1-6)]Man(a1-6)[Neu5Ac(a2-6)Gal(b1-4)GlcNAc(b1-2)Man(a1-3)][GlcNAc(b1-4)]Man(b1-4)GlcNAc(b1-4)GlcNAc
Summary of the method: as §1

[39] = molecular target: Neu5Ac(a2-6)Gal(b1-4)GlcNAc(b1-3)Gal(b1-3)GlcNAc
Summary of the method: as §1

[40] = molecular target: Neu5Ac(a2-6)Gal(b1-4)GlcNAc(b1-3)Gal(b1-4)GlcNAc
Summary of the method: as §1

[41] = molecular target: Neu5Ac(a2-6)Gal(b1-4)GlcNAc(b1-3)Gal(b1-4)GlcNAc(b1-2)Man(a1-3)[Neu5Ac(a2-6)Gal(b1-4)GlcNAc(b1-3)Gal(b1-4)GlcNAc(b1-2)Man(a1-6)]GalNAc
Summary of the method: as §1

[42] = molecular target: Neu5Ac(a2-6)Gal(b1-4)GlcNAc(b1-3)Gal(b1-4)GlcNAc(b1-3)Gal(b1-4)GlcNAc
Summary of the method: as §1

B1: FimA (Actinomyces oris) (protein)
chain: MHHHHHHSSGVDLGTENLYFQSNAETPNYGNIKTDATGSLVIHKHLTGGGKDIGTPTGTAQNADDKGPAVEGVVFTAYPITDINLKDPAGWDTISNLSRTGVPDSACANPAAPTLGAHQFGTPKVSPATTKEGLATITEMPVQAYLVCETTTPGDIVQKAKPFVVTIPHPNTAAGADGQWIYDVNVYPKNEAIDVDKTIQAQKLNGYGVGSLIKFPVESTAPTLDAKSFYKYFQLKDTLDERLSEVTATDVSLEGTPLQPTDYKVETKQQTVTVTFTAEGLKKIKAAPGKKVSAVFQGKVTKAGNGAITNRAQVISDTLYAEQPPTPETPPTDPENPPTSDEVISRWGDLSIKKVDTHQQGQTKAGLQGAQFQLYKAKNAYANTCSNEKEGAPIAINGQTTLTTDAQGAIDIKGLFISDSIDGADRDNQVNAMERCYVLVETKAPAGYVLPAGNGAATPVKVKAGEETTDNVTVENTKQSVPGLPLTG
glycan array binding signal (z-score) [1]: -0.287 | glycan array binding signal (z-score) [2]: -0.629 | glycan array binding signal (z-score) [3]: -0.8 | glycan array binding signal (z-score) [4]: -0.213 | glycan array binding signal (z-score) [5]: -0.6 | glycan array binding signal (z-score) [6]: 0.157 | glycan array binding signal (z-score) [7]: -0.326 | glycan array binding signal (z-score) [8]: 0.151 | glycan array binding signal (z-score) [9]: -0.105 | glycan array binding signal (z-score) [10]: 0.75 | glycan array binding signal (z-score) [11]: 0.766 | glycan array binding signal (z-score) [12]: -0.351 | glycan array binding signal (z-score) [13]: -0.128 | glycan array binding signal (z-score) [14]: -0.585 | glycan array binding signal (z-score) [15]: -0.916 | glycan array binding signal (z-score) (Neu5Ac(a2-3)GalNAc): -0.006 | glycan array binding signal (z-score) [16]: -0.801 | glycan array binding signal (z-score) [17]: -0.487 | glycan array binding signal (z-score) [18]: -0.88 | glycan array binding signal (z-score) [19]: -0.484 | glycan array binding signal (z-score) [20]: 0.518 | glycan array binding signal (z-score) (Neu5Ac(a2-6)Gal): -0.031 | glycan array binding signal (z-score) [21]: -0.252 | glycan array binding signal (z-score) (Neu5Ac(a2-6)Gal(b1-4)Glc): 0.554 | glycan array binding signal (z-score) [22]: -0.461 | glycan array binding signal (z-score) [23]: -0.714 | glycan array binding signal (z-score) [24]: 0.709 | glycan array binding signal (z-score) [25]: 1.55 | glycan array binding signal (z-score) [26]: 0.269 | glycan array binding signal (z-score) [27]: -0.49 | glycan array binding signal (z-score) [28]: -0.666 | glycan array binding signal (z-score) [29]: -0.446 | glycan array binding signal (z-score) [30]: 0.242 | glycan array binding signal (z-score) [31]: -0.373 | glycan array binding signal (z-score) [32]: -0.411 | glycan array binding signal (z-score) [33]: -0.393 | glycan array binding signal (z-score) [34]: 0.37 | glycan array binding signal (z-score) [35]: 0.305 | glycan array binding signal (z-score) [36]: 0.67 | glycan array binding signal (z-score) [37]: 0.805 | glycan array binding signal (z-score) [38]: 0.162 | glycan array binding signal (z-score) [39]: -0.578 | glycan array binding signal (z-score) [40]: -0.805 | glycan array binding signal (z-score) [41]: 0.384 | glycan array binding signal (z-score) [42]: -0.393

Reference: the supplement of paper PMC8728848
